Data taken from paper PMC11470877.
These are yes or no findings as the source states them, for the method shown. Binding seen in cells or lysates may run through a third protein. Tags and fused reporters may be left off the sequences shown.

The chains behind the UniProt entries cited, without tags or fusion partners.
UniProt O54851: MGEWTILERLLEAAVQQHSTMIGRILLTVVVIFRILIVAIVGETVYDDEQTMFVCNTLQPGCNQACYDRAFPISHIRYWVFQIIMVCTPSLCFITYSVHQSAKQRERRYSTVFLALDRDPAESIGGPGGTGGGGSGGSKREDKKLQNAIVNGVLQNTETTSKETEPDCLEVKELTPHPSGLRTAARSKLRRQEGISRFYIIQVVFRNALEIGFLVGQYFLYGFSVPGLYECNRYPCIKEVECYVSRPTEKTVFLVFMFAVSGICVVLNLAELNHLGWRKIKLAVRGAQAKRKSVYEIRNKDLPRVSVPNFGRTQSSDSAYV

Target: T1, GFP-tagged Sec24C (UniProt P53992)
T1 sequence: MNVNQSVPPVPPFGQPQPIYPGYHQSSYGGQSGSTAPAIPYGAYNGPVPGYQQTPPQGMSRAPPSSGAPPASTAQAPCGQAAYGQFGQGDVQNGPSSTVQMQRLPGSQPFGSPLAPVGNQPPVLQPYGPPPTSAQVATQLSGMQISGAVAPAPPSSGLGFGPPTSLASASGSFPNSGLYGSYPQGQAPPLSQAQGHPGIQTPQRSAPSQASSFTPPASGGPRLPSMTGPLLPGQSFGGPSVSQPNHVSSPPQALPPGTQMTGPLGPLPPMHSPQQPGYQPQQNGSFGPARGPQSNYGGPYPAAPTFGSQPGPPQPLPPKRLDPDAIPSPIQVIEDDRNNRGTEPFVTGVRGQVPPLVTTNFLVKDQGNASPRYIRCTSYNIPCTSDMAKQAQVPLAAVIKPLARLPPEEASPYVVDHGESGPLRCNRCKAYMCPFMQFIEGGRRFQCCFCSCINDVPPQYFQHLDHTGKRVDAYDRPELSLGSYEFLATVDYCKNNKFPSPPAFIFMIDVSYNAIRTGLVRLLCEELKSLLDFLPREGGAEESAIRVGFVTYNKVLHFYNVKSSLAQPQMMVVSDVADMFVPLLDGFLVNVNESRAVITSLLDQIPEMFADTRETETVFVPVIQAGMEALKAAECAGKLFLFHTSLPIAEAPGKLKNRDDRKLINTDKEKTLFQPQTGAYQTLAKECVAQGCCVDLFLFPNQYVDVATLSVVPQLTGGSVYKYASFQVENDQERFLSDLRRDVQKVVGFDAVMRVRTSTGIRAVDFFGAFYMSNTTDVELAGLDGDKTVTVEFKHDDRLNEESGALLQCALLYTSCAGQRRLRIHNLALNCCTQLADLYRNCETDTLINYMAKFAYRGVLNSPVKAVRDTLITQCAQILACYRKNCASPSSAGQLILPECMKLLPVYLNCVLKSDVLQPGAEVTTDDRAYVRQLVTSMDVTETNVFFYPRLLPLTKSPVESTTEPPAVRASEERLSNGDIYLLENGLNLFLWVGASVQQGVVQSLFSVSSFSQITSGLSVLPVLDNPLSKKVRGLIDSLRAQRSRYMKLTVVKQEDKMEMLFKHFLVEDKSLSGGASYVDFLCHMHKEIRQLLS
Assay: co-IP; GFP-Trap agarose on lysates of HEK293T cells co-transfected with the GFP- or Venus-tagged protein and a Cx36 vector; IP buffer 200 mM NaCl, EDTA, 1% Tx-100, 50 mM TrisHCl pH 7.5; overnight at 4 °C; Cx36 detected by western blot

- binding: no binding
Substance: Connexin 36 (Cx36), wild type (from UniProt O54851 1-321)
